Earlier results as cited in patent US9550775B2, “Substituted triazolopyridines and methods of use thereof” (GENENTECH, INC., priority 2013, dated 2017).

Conditions: administered topically (Lidoderm patch); cited from earlier work

In the case of CCN(CC)CC(=O)Nc1c(C)cccc1C [lidocaine], the plasma concentrations is given as “about 1 μM”.
